Patent publication US20230037975A1, “USE OF C[…] IN ORAL CARE COMPOSITIONS TO INHIBIT THE GROWTH OF P. GINGIVALIS” (Demetrix, Inc., priority 2021, published 2023)
Some results were stated once for a whole list of compounds, not compound by compound.

Tested on: Porphyromonas gingivalis
Assay: minimum inhibitory concentration (MIC) assay against P. gingivalis
Format: cell-based
Protocol: To determine the ability of the cannabinoid compounds described herein to reduce, or eliminate, P. gingivalis a minimum inhibitory concentration (“MIC”) assay was performed. The assay was performed by Charles River Laboratories International (Wilmington, Mass.) in accordance with industry standards.

Substance: (+)-cannabidiol [(+)-CBD]
- minimum inhibitory concentration (MIC) against P. gingivalis: < 1 µg/mL
